Assay results taken from publication doi:10.1101/2022.05.16.492129.
Results are given in words; binding and its absence hold for the method and conditions named. For some assays here: A result given as binding can be weak or reduced; the word gives no strength. Tags and fused reporters may be left off the sequences shown.

Legend:
Assay in all cases: flow cytometry on cells
[1] = target: zebrafish Fzd1 eGFP fusion (zebrafish)
[2] = target: zebrafish Fzd2 eGFP fusion (zebrafish)
[3] = target: zebrafish Fzd3b eGFP fusion (zebrafish)
[4] = target: zebrafish Fzd4 eGFP fusion (zebrafish)
[5] = target: zebrafish Fzd7a eGFP fusion (zebrafish)

B1: zebrafish Cachd1 ectodomain prey protein, FLAG-tagged (domain or fragment, UniProt E7F5Q0 49-1108)
chain: DSEFSILEEAQVLAVQMKKLSTQELGVLTMQRIFNSFVYTEKTSNGETEVQQLAKKIREKFNRYLDVVNRNKQVVEASYTAHLTSPLTAIQDCCSIPPSMMEFDGNFNANVSKTVSCDRLSPTVNSRAFNPGRDLNSVLADNLKSNPGIKWQYFSSEEGIFTLFPAHKFHCKGTFEHRSRPVYVAAVRPQSKHIVVIIDHGASVTETQLQIARDAALVILNSIDEHDKISVLTIADTVRSCSLDQCYKSFLSPATSETKRKMSTFISNIKASDSSTQHAVGFQKAFQLLRNTSNVTRQLTNTDMMIIYLSSGITSRDSSEHEKRATLSAVKEENRHLNNSVMILTYALMNDGVTGLKELAFLRDLAEQNSLKYGVQDRSALPVVKGSMMVLNQLSNLETTVGRFYINLPNRMIDVATFSLPYADQMGDGFIMTVSRPCYFGNLLLGVVGVDVNLAYILEDVTYYQDSLASYTFLIDNKGYTLMHPSLTRPYLMTEAPLHTDIIHYENIPGFPVVRQNILSLPLGSQVIAVPVNSSLSWHMNRLRDPNRDAYNVSYAWKLVQDTSFILCIVYVQPEIPVKQLKNLNTAPSSKLLYHRLDLLGQPSSCLHFKQLATVESPTVMLSAGSFSSPYEHLSQPETKRMVEHYTAYLSDNTRLIANPGLKSSVRNEVMATSHVTDEWMSLMEMSSLNCYIVRRYIATPNGVLRIYPGSLMDKAFDPTRRQWYLHAVANPGLITFTGPYLDVGGAGYVVTISHTIHAPSSQMASGYTVAVMGIDFTLRYFYKVLLDLLPICNQDKGNKIRCFIMEDRGYLVAHPTLIDPKGHAPAEQQHITHKEPLVANDILNHPNFVKKNLCNSFSDRTVQRFYKFNTSIVGDLTNLVHGSHCSKYRLTRIPGTNAFAGIVNETCDALAFCACSTVDRLCLNCHRMEQNECECPCECPLEVNECTGNLTNAENRNPSCDVHQEPLSLTVIEPSLQDTLPQCINTRCSQRFTSSDCFGVLDCEWCMVDSDGKTHLDKPYCALQKECFGGIVGAKSPYVDGMGILDEELASLNMIKSAP
For B1, the binding [1] was “binds”, the binding [2] was “binds” and the binding [3] was “no binding”. For the same binder, the binding [4] was “no binding” and the binding [5] was “binds”.
